Experimental data: PubChem BioAssay AID1259308 (NCATS, 2017)

- Aim: 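Genes whose loss raises luciferase production in HEK293 cells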 (primary screen)
- Cell system: human HEK293 embryonic kidney cells stably expressing firefly luciferase (HEK-CMV-Luc2-Hygro)
- Reagent: single siRNA against human genes, 0.8 pmol siRNA per well
- Time to read-out: 72 h
- Read-out: 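Luciferase light (ONE-Glo) measured on one replicate plate set and viability (CellTiter-Glo) on the other, scaled to a negative control siRNA, with robust z-scores and luciferase per cell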
- Scale: total luciferase, z-score: higher = more reporter protein produced
- Call rule: 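An siRNA counts as active if its total luciferase robust z-score exceeds 3; genes with two or more such siRNAs out of three were retested with fresh siRNAs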
- Meaning of the calls: active = raised luciferase; inactive = no rise
Shown is an unselected part of about 59,000 reagents. About 1,510 of them (2.6%) were called active. 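Calls use total luciferase alone and ignore viability, so some active siRNAs may act by altering cell number.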 Reagents against one gene are numbered here. Further read-outs or replicates are left out here.

no.	target gene	reagent no.	total luciferase, z-score	call
1	HOXC4	1	0.111	inactive
2	HOXC4	2	-0.303	inactive
3	HOXC4	3	-1.38	inactive
4	RPS7P4	1	-0.482	inactive
5	RPS7P4	2	0.385	inactive
6	RPS7P4	3	-2.14	inactive
7	LRRC59	1	0.519	inactive
8	LRRC59	2	0.805	inactive
9	LRRC59	3	0.37	inactive
10	TMEM114	1	-1.3	inactive
11	TMEM114	2	-0.542	inactive
12	TMEM114	3	-1.44	inactive
13	DTNBP1	1	0.453	inactive
14	DTNBP1	2	0.0962	inactive
15	DTNBP1	3	-0.465	inactive
16	OXSM	1	-0.481	inactive
17	OXSM	2	1.18	inactive
18	OXSM	3	-1.01	inactive
19	THEM4	1	0.598	inactive
20	THEM4	2	0.36	inactive
21	THEM4	3	-0.996	inactive
22	CAPN9	1	0.026	inactive
23	CAPN9	2	1.62	inactive
24	CAPN9	3	1.46	inactive
25	ESS2	1	0.113	inactive
26	ESS2	2	0.135	inactive
27	ESS2	3	4.83	active
28	ATAD3A	1	0.443	inactive
29	ATAD3A	2	-0.559	inactive
30	ATAD3A	3	-0.99	inactive
31	PARP11	1	-0.00356	inactive
32	PARP11	2	-0.212	inactive
33	PARP11	3	0.985	inactive
34	XKR4	1	-0.606	inactive
35	XKR4	2	-0.274	inactive
36	XKR4	3	-0.432	inactive
37	TMED8	1	0.733	inactive
38	TMED8	2	-0.00316	inactive
39	TMED8	3	-1.61	inactive
40	TEX261	1	0.655	inactive
41	TEX261	2	-1.08	inactive
42	TEX261	3	-0.922	inactive
43	CIMIP2A	1	1.51	inactive
44	CIMIP2A	2	0.463	inactive
45	CIMIP2A	3	1.58	inactive
46	ASB9	1	-0.592	inactive
47	ASB9	2	0.197	inactive
48	ASB9	3	3.54	active
49	CLDN8	1	-0.517	inactive
50	CLDN8	2	-0.674	inactive
51	CLDN8	3	-0.291	inactive
52	FANCM	1	-0.599	inactive
53	FANCM	2	0.636	inactive
54	FANCM	3	0.537	inactive
55	PRELID1P6	1	-3.09	inactive
56	PRELID1P6	2	0.00289	inactive
57	PRELID1P6	3	0.801	inactive
58	PADI6	1	0.486	inactive
59	PADI6	2	-0.0648	inactive
60	PADI6	3	2.5	inactive
61	ADRB2	1	0.207	inactive
62	ADRB2	2	2.29	inactive
63	ADRB2	3	-0.216	inactive
64	IVL	1	0.705	inactive
65	IVL	2	-1.85	inactive
66	IVL	3	-1.09	inactive
67	PLSCR3	1	0.542	inactive
68	PLSCR3	2	-0.487	inactive
69	PLSCR3	3	-0.705	inactive
70	CTSD	1	0.0609	inactive
71	CTSD	2	-0.643	inactive
72	CTSD	3	0.615	inactive
73	BARX1	1	3.68	active
74	BARX1	2	-1.84	inactive
75	BARX1	3	-1	inactive

Part of the list above in another layout.
DTNBP1 #2
- total luciferase, z-score: 0.0962
- call: inactive

DTNBP1 #3
- total luciferase, z-score: -0.465
- call: inactive

OXSM #1
- total luciferase, z-score: -0.481
- call: inactive

OXSM #2
- total luciferase, z-score: 1.18
- call: inactive

OXSM #3
- total luciferase, z-score: -1.01
- call: inactive

THEM4 #1
- total luciferase, z-score: 0.598
- call: inactive

THEM4 #2
- total luciferase, z-score: 0.36
- call: inactive

THEM4 #3
- total luciferase, z-score: -0.996
- call: inactive

CAPN9 #1
- total luciferase, z-score: 0.026
- call: inactive

CAPN9 #2
- total luciferase, z-score: 1.62
- call: inactive

CAPN9 #3
- total luciferase, z-score: 1.46
- call: inactive
